Results reported in patent US20180042923A1, “COMBINATIONS COMPRISING BREXPIPRAZOLE OR A SALT THEREOF AND A SECOND DRUG FOR USE IN THE TREATMENT OF A CNS DISORDER” (priority 2011, published 2018).
At least one read-out could not be matched to a standard name with certainty.

Test system: ddY male mice
Assay: Forced swimming test in mice (antidepressant action)
Assay type: in vivo
Settings: Compound (I) 0.001 mg/kg i.p. 15 min before test; venlafaxine 15 mg/kg p.o. 60 min before; n=10
Description: When an antidepressant is administered in advance, the immobility time is shortened. The shortened immobility time is used as an index of an antidepressant action to be evaluated. This test method is widely used as an experimental animal model reflecting the clinical antidepressant effect.
In this test, the action of a combined use of 7-[4-(4-benzo[b]thiophen-4-yl-piperazin-1-yl)butoxy]-1H-quinolin-2-one (Compound (I)) and 9 kinds of antidepressants (serotonin reuptake inhibitors, or serotonin and norepinephrine reuptake inhibitors) on the immobility time was compared.
As the animal, ddY male mice (5 to 6-week-old) were used. Various antidepressants and Compound (I) or each vehicle were administered to the mice before the start of the test, the mice were placed in a cylindrical water tank, and immobility time during 2 min to 4 min after the start of swimming was measured by a behavior analysis apparatus with an infrared sensor (SCANET; Melquest Co., Ltd.).
Compound (I) was dissolved in 1% lactic acid-physiological saline, and various antidepressants were suspended or dissolved in 5% gum arabic-distilled water and used. […]

COc1ccc(C(CN(C)C)C2(O)CCCCC2)cc1 (stereo not shown) [venlafaxine, reference compound]
immobility time (3-6 min after start of swimming, unit: sec) (average ± standard error): 223.6 ± 4.3 s
